{"sequences": {"note": "Sequences of proteins named here, by UniProt entry; tags and fusion partners are left off. A change or cut given only in a name is not applied to a line headed by its entry.", "UniProt P18054": "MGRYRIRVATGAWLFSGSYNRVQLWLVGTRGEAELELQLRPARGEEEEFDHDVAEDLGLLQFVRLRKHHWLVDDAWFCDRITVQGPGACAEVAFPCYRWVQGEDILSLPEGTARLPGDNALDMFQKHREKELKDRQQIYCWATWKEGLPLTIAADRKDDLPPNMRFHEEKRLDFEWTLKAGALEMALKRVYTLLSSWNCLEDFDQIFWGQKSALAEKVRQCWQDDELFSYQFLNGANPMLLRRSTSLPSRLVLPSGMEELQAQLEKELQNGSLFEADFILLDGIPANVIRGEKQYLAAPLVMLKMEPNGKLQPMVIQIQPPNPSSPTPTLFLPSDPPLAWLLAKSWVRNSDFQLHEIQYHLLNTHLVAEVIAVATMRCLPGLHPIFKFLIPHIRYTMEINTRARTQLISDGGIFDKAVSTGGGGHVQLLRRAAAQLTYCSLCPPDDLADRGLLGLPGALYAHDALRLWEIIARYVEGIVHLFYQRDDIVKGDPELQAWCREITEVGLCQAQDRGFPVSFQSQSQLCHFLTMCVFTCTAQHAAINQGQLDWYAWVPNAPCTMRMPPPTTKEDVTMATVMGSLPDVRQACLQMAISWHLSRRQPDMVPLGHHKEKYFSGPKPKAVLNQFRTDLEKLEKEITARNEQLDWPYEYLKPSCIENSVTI"}, "source": "PubChem BioAssay AID1671190", "about": "(National Center for Advancing Translational Sciences (NCATS), 2021)", "note": "In all, about 580,000 compounds went through this assay and about 6,100 (1.1%) were called active. The inconclusive results got no clear call from the source; some entries with a clear call stand among them for comparison. Calls follow the shape of the dose curve; as a rule, active = well fitted inhibition curve with a large enough effect; inconclusive = small, poorly fitted or top-dose-only effect, or another doubt; inactive = no such curve, though single readings can be large or run the other way. Potencies of inconclusive entries are doubtful fits and often do not repeat. % is scaled to controls: 0 for no effect and ±100 for the full control effect; potency is read from the fitted curve at half-maximal effect.", "data": [{"molecular_target": "Polyunsaturated fatty acid lipoxygenase ALOX12 (Homo sapiens) (UniProt P18054)", "assay": "Primary qHTS assay for inhibitors of human arachidonate 12S-lipoxygenase (ALOX12): Round 2", "details": "purified 12hLO, xylenol orange hydroperoxide absorbance; activity change, negative = inhibition: at 108 µM (top of the series) unless noted", "outline": "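Purified human 12hLO at 150 nM in 25 mM Hepes, 0.01% Triton X-100, pH 7.0, preincubated 15 min at room temperature with compound. Reaction started with 40 uM arachidonic acid, 30 min at room temperature. Hydroperoxide measured by Fe-xylenol orange, 573/405 nm absorbance ratio.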", "values": [{"smiles": "COc1ccc(-c2nc(CN3CCC(C(=O)N4CCOCC4)CC3)c(C)o2)c(OC)c1", "activity change, negative = inhibition": "inactive: -11.7%"}, {"smiles": "CCC1CN(C(=O)Nc2cccc(OC)c2)c2ccccc2O1", "note": "(centres undefined)", "activity change, negative = inhibition": "inactive: -4.14%"}, {"smiles": "CCC(NC(=O)/C=C/c1ccccc1)c1cccs1", "note": "(centres undefined)", "activity change, negative = inhibition": "inactive: -16.7%"}, {"smiles": "S=c1[nH]nc(-c2n[nH]c3c2CCC3)n1/N=C/C=C/c1ccccc1", "Potency": "inconclusive: 20 µM [inhibitor, partial curve, poor fit]"}, {"smiles": "Cc1[nH]c2ccccc2c1N=Nc1ccccc1F", "Potency": "inconclusive: 44.7 µM [inhibitor, partial curve, poor fit]"}, {"smiles": "Cc1ccc(S(=O)(=O)N2CCN(C3CCN(Cc4ccccn4)C3=O)CC2)cc1F", "note": "(centres undefined)", "Potency": "inconclusive: 3.16 µM [inhibitor, full curve, poor fit]"}, {"smiles": "Clc1cc(Cl)c(OCCCCn2cncn2)c(Cl)c1", "Potency": "inconclusive: 22.4 µM [inhibitor, full curve, poor fit]"}, {"smiles": "CCOC(=O)c1c(NC(C)=O)sc2c1CCN(Cc1ccccc1)C2", "activity change, negative = inhibition": "inactive: -7.45%"}, {"smiles": "CCOc1ccc(-n2c(-c3ccccc3)c[n+]3c2CCC3)cc1", "activity change, negative = inhibition": "inactive: -1.03%"}, {"smiles": "CC[C@@]1(C(=O)OC)N[C@H](CN(C)C(=O)c2ccc(F)cc2)[C@@H]2C(=O)N(Cc3ccccc3)C(=O)[C@@H]21", "Potency": "inconclusive: 35.5 µM [inhibitor, partial curve, poor fit]"}, {"smiles": "Fc1cccc(Cl)c1CN1CCc2ccccc2C1", "activity change, negative = inhibition": "inactive: -8.16%"}, {"smiles": "O=S(=O)(N1CC=C(c2c[nH]c3ccccc23)CC1)N1CCCCC1", "Potency": "inconclusive: 28.2 µM [inhibitor, single point]"}, {"smiles": "Cc1cccnc1C(=O)N[C@@H]1CN(C2CCOCC2)C[C@H]1CN(C)C", "activity change, negative = inhibition": "inactive: 145%"}, {"smiles": "CCN(CC)CCCCC(C(N)=O)c1ccccc1", "note": "(centres undefined)", "Potency": "inconclusive: 39.8 µM [inhibitor, partial curve, poor fit]"}, {"smiles": "O=C(c1cc(C2CC2)[nH]n1)N1CCC2(CC1)NC(=O)N(c1ccc(F)cc1)N2", "Potency": "inconclusive: 7.08 µM [inhibitor, full curve]"}, {"smiles": "Cc1ccc(C(=S)NCS(=O)(=O)c2ccc(C)cc2)cc1", "Potency": "inconclusive: 31.6 µM [inhibitor, partial curve]"}, {"smiles": "Cc1cc(C)n(-c2ncc(C#N)cn2)n1", "Potency": "inconclusive: 6.31 µM [inhibitor, full curve, poor fit]"}, {"smiles": "COC/C=C/C1=CC2=CC(=O)C(C)(OC(=O)c3cnc4ccccc4n3)C(=O)C2=CN1Cc1ccc(OC)cc1", "note": "(centres undefined)", "Potency": "inconclusive: 50.1 µM [inhibitor, partial curve, poor fit]"}, {"smiles": "O=C(/C=C/c1ccco1)c1ccccc1", "Potency": "active: 15.8 µM"}, {"smiles": "COc1cc(/C=C(/C#N)c2ccccn2)cc(Br)c1OC", "Potency": "inconclusive: 50.1 µM [inhibitor, partial curve, poor fit]"}, {"smiles": "COc1cc(C(=O)C(=O)N2CCN(c3ccccc3)CC2)cc(OC)c1OC", "Potency": "inconclusive: 112 µM [inhibitor, single point]"}, {"smiles": "O=C(NC(=S)Nc1cc([N+](=O)[O-])ccc1Cl)c1ccccc1", "Potency": "inconclusive: 25.1 µM [inhibitor, single point]"}, {"smiles": "CN(C)c1cc[n+](CC(=O)Nc2ccccc2C(F)(F)F)cc1", "activity change, negative = inhibition": "inconclusive: -31.4% [inhibitor]"}, {"smiles": "CCOC1CCCC(n2cnc3c(=S)nc[nH]c32)O1", "note": "(centres undefined)", "Potency": "inconclusive: 20 µM [inhibitor, partial curve, poor fit]"}, {"smiles": "O=c1c2ccccc2[nH]c(=S)n1CCCN1CCN(C2CCCCC2)CC1", "Potency": "inconclusive: 126 µM [inhibitor, single point]"}, {"smiles": "COc1ccc(-c2nc3cnccn3c2NCCC(=O)O)cc1", "Potency": "inconclusive: 31.6 µM [inhibitor, partial curve]"}, {"smiles": "CCc1cccc(CC)c1NC(=S)NCCc1ccc(O)c(O)c1", "Potency": "inconclusive: 50.1 µM [inhibitor, partial curve, poor fit]"}, {"smiles": "COc1ccccc1C(=O)N(Cc1ccc(C(C)C)cc1)C1CCS(=O)(=O)C1", "note": "(centres undefined)", "activity change, negative = inhibition": "inactive: 3.68%"}, {"smiles": "O=C(NCCCn1ccnc1)c1cccnc1", "activity change, negative = inhibition": "inactive: 0%"}, {"smiles": "OC1(CN2CCC(CCn3cccn3)CC2)CCNC1", "note": "(centres undefined)", "Potency": "inconclusive: 10 µM [inhibitor, full curve, poor fit]"}, {"smiles": "CCOC(=O)c1ccc(NC2c3ccccc3C(=O)N2c2ccccn2)cc1", "note": "(centres undefined)", "activity change, negative = inhibition": "inactive: 19.3%"}, {"smiles": "CC(=O)OCC(=O)C1(O)CCC2C3CCC4=CC(=O)CCC4(C)C3(F)C(O)CC21C", "note": "(centres undefined)", "activity change, negative = inhibition": "inactive: 10.9%"}, {"smiles": "COc1cc2c(cc1NC(=S)NC(=O)c1c(OC)cccc1OC)oc1ccccc12", "Potency": "inconclusive: 0.398 µM [inhibitor, full curve, poor fit]"}, {"smiles": "COC(=O)c1scc(-c2ccc(C)cc2)c1S(=O)(=O)Nc1cccc(Cl)c1C", "activity change, negative = inhibition": "inactive: -21.9%"}, {"smiles": "COc1cccc(Nc2nccc3[nH]c(-c4cccc(C(F)(F)F)c4)nc23)c1", "Potency": "inconclusive: 112 µM [inhibitor, single point]"}, {"smiles": "Cc1cnn(CC(=O)N2C[C@@H](CO)[C@H](c3ccccn3)C2)c1", "activity change, negative = inhibition": "inactive: 17.3%"}, {"smiles": "COCCCN1C(=O)C(O)=C(C(=O)c2ccc(C)o2)C1c1cccc(Br)c1", "note": "(centres undefined)", "Potency": "inconclusive: 50.1 µM [inhibitor, partial curve, poor fit]"}, {"smiles": "CCCc1cc(=O)n2[nH]c(C)c(-c3ccccc3)c2n1", "Potency": "inconclusive: 15.8 µM [inhibitor, partial curve, poor fit]"}, {"smiles": "S=c1[nH]nc(COc2ccccc2)n1/N=C/c1ccc(Cl)cc1Cl", "activity change, negative = inhibition": "inactive: -1.68%"}, {"smiles": "CSc1ccc(C(C)NC(=O)c2cc(F)ccc2F)cc1", "note": "(centres undefined)", "Potency": "inconclusive: 35.5 µM [inhibitor, single point]"}, {"smiles": "CC(=O)Nc1c(C)noc1/C=C\\c1ccc(C)c(S(=O)(=O)Nc2ccc(C(C)C)cc2)c1", "Potency": "inconclusive: 39.8 µM [inhibitor, partial curve, poor fit]"}, {"smiles": "Cc1ccc(NC(=O)CN2CCC(C(N)=O)CC2)cc1F", "Potency": "inconclusive: 100 µM [inhibitor, single point]"}, {"smiles": "O=S(=O)(NNc1ncc(C(F)(F)F)cc1Cl)c1ccccc1", "Potency": "inconclusive: 2.82 µM [inhibitor, full curve, poor fit]"}, {"smiles": "CCOc1ccccc1N1CCN(CC(=O)Nc2nc(C)c(C(=O)N(C)C)s2)CC1", "Potency": "inconclusive: 39.8 µM [inhibitor, partial curve, poor fit]"}, {"smiles": "O=C(/C=C/c1ccccc1O)c1ccc(-c2ccccc2)cc1", "Potency": "inconclusive: 44.7 µM [inhibitor, partial curve, poor fit]"}, {"smiles": "COc1ccccc1/C=N\\Nc1ccccc1[N+](=O)[O-]", "activity change, negative = inhibition": "inactive: 42.8%"}, {"smiles": "Cc1nc2c(C)cccc2cc1C(=O)N1CCC2(CCNCC2)CC1", "Potency": "inconclusive: 20 µM [inhibitor, full curve]"}, {"smiles": "CCOC(=O)[C@]12CCC=C1N(CCC1=CCCCC1)C(=O)[C@H](CC(=O)NCCc1ccccc1OC)C2", "Potency": "inconclusive: 39.8 µM [inhibitor, partial curve, poor fit]"}, {"smiles": "CCCCNS(=O)(=O)/C=C/c1cc(C)ccc1CNC(=O)OC(C)(C)C", "Potency": "inconclusive: 35.5 µM [inhibitor, partial curve, poor fit]"}, {"smiles": "COCCCNC(=S)NNC(=O)c1ccc2c(c1)OCO2", "activity change, negative = inhibition": "inactive: -2.8%"}, {"smiles": "O=C(CCc1nc(CSc2n[nH]c(-c3cccc(F)c3)n2)no1)Nc1cccc2ccccc12", "activity change, negative = inhibition": "inactive: -14.6%"}, {"smiles": "CCc1ccc(C(=O)CSc2n[nH]c(C)n2)cc1", "Potency": "inactive"}, {"smiles": "CCOC(=O)c1sc(NC(=O)C(C)Sc2nc(-c3ccccc3)cc(C(F)(F)F)n2)c(C(=O)OC)c1C", "note": "(centres undefined)", "activity change, negative = inhibition": "inactive: -16.5%"}, {"smiles": "O=C1C(Cl)=C(Nc2ccccc2O)C(=O)N1c1ccccc1", "activity change, negative = inhibition": "inactive: -9.05%"}, {"smiles": "COc1ccc(CN(CC(F)(F)F)C(=O)c2cnc3ccccc3n2)cc1", "activity change, negative = inhibition": "inactive: 12%"}, {"smiles": "O=C(CN1CCN(C(=O)C2CCN(C(=O)/C=C/c3ccccc3)CC2)CC1)Nc1ccc(F)cc1", "activity change, negative = inhibition": "inactive: 3.58%"}, {"smiles": "O=C(CSc1nnc(-c2ccccc2O)o1)N1CCCCC1", "activity change, negative = inhibition": "inactive: -20.3%"}, {"smiles": "S=C(/N=c1/sccn1Cc1ccccc1)NC1CC1", "Potency": "inconclusive: 44.7 µM [inhibitor, partial curve, poor fit]"}, {"smiles": "CC(=O)c1c(C)[nH]c(-c2csc(CC(=O)Nc3cccc(C)c3)n2)c1C", "Potency": "inconclusive: 39.8 µM [inhibitor, partial curve]"}, {"smiles": "Cc1oc(-c2ccc(C(=O)Nc3cccc(C(F)(F)F)c3)cc2)nc1CSc1ccccc1", "Potency": "inconclusive: 178 µM [inhibitor, single point]"}, {"smiles": "Cc1nn(C)c(C)c1S(=O)(=O)N(CC(=O)NCc1cccs1)c1ccc(C(C)C)cc1", "Potency": "inconclusive: 39.8 µM [inhibitor, single point]"}, {"smiles": "CC1CC(C)(C)NC(=S)N1CCC(=O)NCc1ccc(Cl)cc1", "note": "(centres undefined)", "Potency": "inconclusive: 50.1 µM [inhibitor, partial curve, poor fit]"}, {"smiles": "[O-]/[N+](=C\\c1ccco1)c1ccccc1", "Potency": "inconclusive: 50.1 µM [inhibitor, partial curve, poor fit]"}, {"smiles": "CCOC(=O)c1ccc(NC(=O)C2(c3ccccc3)CCCC2)cc1", "activity change, negative = inhibition": "inactive: 0%"}, {"smiles": "COc1ccc(-c2csc(NC(=O)CN3C(=O)NC4(CCCC4)C3=O)n2)c(OC)c1", "activity change, negative = inhibition": "inactive: -23.7%"}, {"smiles": "COc1cc(C2CC(=O)NC(SCC(=O)Nc3ccccc3C)=C2C#N)ccc1O", "note": "(centres undefined)", "Potency": "inconclusive: 50.1 µM [inhibitor, partial curve, poor fit]"}, {"smiles": "Fc1ccc(OCc2nc(-c3ccc(Br)o3)no2)c(F)c1", "Potency": "inconclusive: 44.7 µM [inhibitor, partial curve, poor fit]"}, {"smiles": "Cc1cccc(-c2oc3ccccc3c2C#CCCCCO)c1", "Potency": "inconclusive: 39.8 µM [inhibitor, partial curve, poor fit]"}, {"smiles": "CC1=NN(C(N)=S)C(=O)C1N=Nc1ccc(O)cc1", "note": "(centres undefined)", "Potency": "inconclusive: 56.2 µM [inhibitor, partial curve, poor fit]"}]}]}
